Earlier results, collected in publication PMC11915030 (ACS Pharmacology & Translational Science, 2025).

Settings: morphine-metamizole PCA pump, 37 °C, after 7 days; cited from earlier work

## CN1CC[C@]23c4c5ccc(O)c4O[C@H]2[C@@H](O)C=C[C@H]3[C@H]1C5 [morphine]
  concentration remaining, of initial concentration in the PCA pump: approximately 72%
